## Screening data, single-dose tests

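Assay of Toxoplasma gondii numbers, read through their beta-galactosidase reporter with a colour substrate. Compounds at 50 µM. The record gives no direction; the compounds picked for IC50 retests had high values, so higher reads as fewer parasites. Of about 18,000 compounds tested this way, about 170 (0.94%) reached 50% or more in at least one test.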

Results are given as percent effect. The record does not define 0% and 100%; most values in the screen are far below 50% and negative numbers occur (in some assays of this library far below -100). The compounds are a random part of those screened.

Cn1ccnc1SCCNCC1(O)CNCCOC1 (configuration not stated) read -11.36%.
CS(=O)(=O)NC1CCCN(c2ccncc2Cl)C1 (configuration not stated) read -1.675%.
N#CC1CNCCO1 (configuration not stated) read 42.08%.
CCNC(=O)c1ccc2c(c1)CCN2 read 4.485%.
Oc1cccc(CNc2cccnc2-n2cccn2)c1 read -9.023%.
FC(F)(F)c1cccnc1NCC1CNCCOC1 (configuration not stated) read 1.308%.
CC(C)NC(=O)c1ccc(CN2CCCC2)cc1 read 4.748%.
COc1ccccc1CC(=O)Nc1ncc(C(N)=O)s1 read -10.92%.
CC(C)Oc1ccc(S(=O)(=O)N2CCC(N)C2)cc1 (configuration not stated) read 3.819%.
Cc1nccn1CCN(C)CC(=O)Nc1ccn(C)n1 read 8.902%.
Cc1cc(C)n(CCCC(=O)N[C@@H]2COCC[C@H]2O)n1 read 10.72%.
CCn1nc(C)c(CNCC2(O)CCOCC2)c1C read -6.061%.
CCOc1ccc2c(c1)C=C(C(=O)NC)CO2 read -13.55%.
CN(Cc1nccn1C1CC1)CC1(C)COC1 read 1.481%.
NCCOc1ccccc1OCCN read -2.425%.
CCN1CCC(CCN)CC1 read 3.269%.
CCOC(=O)CC1(N)CCOCC1 read -8.705%.
c1ccc(CCNCCCN2CCOCC2)cc1 read -5.458%.
CC(C)CCN(CC(=O)NC(N)=O)C1CC1 read 2.737%.
CC(c1ccsc1)N1CCN(C(=O)CN(C)C)CC1 (configuration not stated) read -2.92%.
COc1cc(OC)cc(C(=O)NC2CCN(C)CC2)c1 read -3.497%.
CCc1noc(C)c1C(=O)NCC1CCCO1 (configuration not stated) read -11.01%.
Cc1ccn(CC(=O)N(C)CC(F)(F)F)c(=O)c1C#N read 13.41%.
CC1Nc2ncccc2NC1=O (configuration not stated) read -12.33%.
CCNCCOc1ccccc1OC read -6.983%.
c1c[nH]c(CN2CCN(C3CCOCC3)CC2)n1 read -7.669%.
CCOC(=O)COc1ccc(C(N)=O)cc1 read 7.15%.
N#Cc1ccc2nc[nH]c2c1 read 6.766%.
COc1ccc(C(C)=O)cc1CN1CCC[C@H]1CO read -5.738%.
COC(=O)C(OC)c1ccccc1O (configuration not stated) read 2.025%.
CNC(=O)CCN1C(=O)c2ccccc2C1=O read -8.75%.
COc1ccnc(N)c1 read 31.49%.
CCN(CCN(C)C)C(=O)c1cn(CCN)nn1 read 2.797%.
Cc1ccc(CN(C)C(=O)CSc2nncn2C)o1 read 6.979%.
CSCCCNC(=O)Nc1cc(C)ccn1 read -6.784%.
NCc1ccc(OCC(=O)Nc2cccnc2)cc1 read -7.286%.
O=C(NC1=NCCS1)c1sccc1C1CC1 read 29.64%.

Data taken from ChEMBL document CHEMBL3988442, “University of Dundee, Small-Polar-MMV Screening Library” (2021).